Measured values as given in doi:10.1101/578138.
Read-outs that look alike come from different tables or passages of the source. Results are given in words; binding and its absence hold for the method and conditions named. In cells and extracts the contact can be indirect. Some results given as binding are weak or reduced against the parent protein; the word gives no strength. For some assays here: Where a sequence is shown, tags or fusion partners need not be part of it. Blank lines part the entries; values can stand above or below the molecule they belong to.

Amino acid sequences for entries named in this document (tags omitted). A change or cut given only in a name is not applied to a line headed by its entry. Residues count along the entry.
UniProt Q9ULZ3, whole entry: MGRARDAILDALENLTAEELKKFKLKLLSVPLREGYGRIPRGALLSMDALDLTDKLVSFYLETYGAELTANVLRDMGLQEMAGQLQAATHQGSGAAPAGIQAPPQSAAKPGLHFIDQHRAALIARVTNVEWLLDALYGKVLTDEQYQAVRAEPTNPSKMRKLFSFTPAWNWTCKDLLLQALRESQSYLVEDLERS
UniProt P11021, 19-654: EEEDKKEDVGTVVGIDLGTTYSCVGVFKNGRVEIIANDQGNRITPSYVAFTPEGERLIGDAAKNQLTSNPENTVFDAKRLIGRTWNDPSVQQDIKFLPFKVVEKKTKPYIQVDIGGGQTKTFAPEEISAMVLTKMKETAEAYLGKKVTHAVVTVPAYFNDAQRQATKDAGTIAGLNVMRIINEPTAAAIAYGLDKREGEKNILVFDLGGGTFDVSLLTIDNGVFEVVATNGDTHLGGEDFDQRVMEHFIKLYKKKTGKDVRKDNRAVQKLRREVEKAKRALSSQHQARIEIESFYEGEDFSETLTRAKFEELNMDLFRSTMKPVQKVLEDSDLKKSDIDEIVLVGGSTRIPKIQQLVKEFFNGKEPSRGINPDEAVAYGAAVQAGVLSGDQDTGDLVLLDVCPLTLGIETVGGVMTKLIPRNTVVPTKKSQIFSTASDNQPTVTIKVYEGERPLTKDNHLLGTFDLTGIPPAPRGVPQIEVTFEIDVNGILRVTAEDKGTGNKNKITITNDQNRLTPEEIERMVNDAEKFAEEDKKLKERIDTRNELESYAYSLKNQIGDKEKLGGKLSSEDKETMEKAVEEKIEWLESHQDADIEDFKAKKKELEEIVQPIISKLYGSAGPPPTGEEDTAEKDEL

How the values were obtained:
GST-HSC70 (human) [1] = biological target: GST-HSC70 (human) (UniProt P11142); assay: pull-down
[2] = biological target: GST-SBD (substrate binding domain of HSC70, aa394-546) (human) (UniProt P11142); assay: pull-down
[3] = biological target: GFP-NLRC4 (WT-NLRC4) (human) (UniProt Q9NPP4); assay: co-IP
GFP-NLRC4-H443P (human) = GFP-NLRC4-H443P (human) (UniProt Q9NPP4); assay: co-IP
[4] = biological target: endogenous NLRC4 (differentiated THP1 cells) (human (endogenous in THP1)) (UniProt Q9NPP4); assay: co-IP
[5] = biological target: HA-ASC (apoptosis-associated speck-like protein containing a CARD) (UniProt Q9ULZ3); assay: co-IP
GST-HSC70 (human) [6] = biological target: GST-HSC70 (human) (UniProt P11142); assay: pull-down; remark: listed apart in the source
[7] = biological target: T1, GFP-LRR (NLRC4 aa658-1024) (human) (UniProt Q9NPP4); assay: co-IP
T1 sequence: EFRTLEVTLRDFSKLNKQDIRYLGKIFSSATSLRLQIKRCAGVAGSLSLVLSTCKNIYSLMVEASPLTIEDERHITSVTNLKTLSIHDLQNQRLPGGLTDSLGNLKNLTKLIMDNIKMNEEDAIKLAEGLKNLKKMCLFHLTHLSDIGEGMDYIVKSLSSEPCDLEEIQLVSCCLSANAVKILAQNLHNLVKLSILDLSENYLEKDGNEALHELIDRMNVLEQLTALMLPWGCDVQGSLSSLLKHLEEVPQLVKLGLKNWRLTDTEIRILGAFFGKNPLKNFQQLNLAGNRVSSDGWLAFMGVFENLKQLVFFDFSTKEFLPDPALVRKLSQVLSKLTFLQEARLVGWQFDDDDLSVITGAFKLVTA

[8] = biological target: T2, GFP-aa91-253 (NBD of NLRC4) (human) (UniProt Q9NPP4); assay: co-IP
T2 sequence: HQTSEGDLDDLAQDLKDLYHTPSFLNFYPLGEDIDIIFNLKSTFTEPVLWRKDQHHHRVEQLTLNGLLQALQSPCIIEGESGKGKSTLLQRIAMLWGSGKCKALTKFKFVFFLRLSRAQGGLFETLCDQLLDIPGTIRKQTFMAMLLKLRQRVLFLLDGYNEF

GFP-NLRC4-V341A (human) = GFP-NLRC4-V341A (human) (UniProt Q9NPP4); assay: co-IP
GFP-NLRC4-T337S (human) = GFP-NLRC4-T337S (human) (UniProt Q9NPP4); assay: co-IP
Myc-NLRC4 (human) = Myc-NLRC4 (human) (UniProt Q9NPP4); assay: co-IP
GFP-CARD (NLRC4) (human) = biological target: T3, GFP-CARD (NLRC4) (human) (UniProt Q9NPP4); assay: co-IP
T3 sequence: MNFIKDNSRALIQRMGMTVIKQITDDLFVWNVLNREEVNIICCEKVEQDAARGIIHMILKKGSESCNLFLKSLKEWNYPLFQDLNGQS

Myc-NLRC4-H443P (human) = Myc-NLRC4-H443P (human) (UniProt Q9NPP4); assay: co-IP

binding (GST-HSC70 (human) [1]): binds | binding [2]: binds
Molecule: GFP-NLRC4 (WT-NLRC4) (from UniProt Q9NPP4 1-1024)

binding [3]: no binding | binding (GFP-NLRC4-H443P (human)): no binding
Molecule: GRP78, endogenous in HEK293T (from UniProt P11021 19-654)

binding [4]: binds
Molecule: heat shock cognate protein 70 (HSC70), endogenous in differentiated THP1 cells (from UniProt P11142 1-646)

binding (GST-HSC70 (human) [1]): binds | binding [2]: binds | binding [5]: binds | binding (GST-HSC70 (human) [6]): binds weakly
Molecule: GFP-NLRC4-H443P (from UniProt Q9NPP4 1-1024)

binding [3]: binds | binding [7]: binds | binding [8]: binds | binding (GFP-NLRC4-V341A (human)): binds | binding (GFP-NLRC4-T337S (human)): binds | binding (Myc-NLRC4 (human)): binds | binding (GFP-NLRC4-H443P (human)): binds | binding (GFP-CARD (NLRC4) (human)): no binding | binding (Myc-NLRC4-H443P (human)): binds
Molecule: heat shock cognate protein 70 (HSC70), endogenous in HEK293T (from UniProt P11142 1-646)

binding (GST-HSC70 (human) [1]): binds
B1: GFP-aa91-253 (NBD of NLRC4) (domain or fragment, UniProt Q9NPP4 91-253)
chain: T2 sequence

binding (GST-HSC70 (human) [1]): binds
B2: GFP-LRR (NLRC4 aa658-1024) (domain or fragment, UniProt Q9NPP4 658-1024)
chain: T1 sequence
